Results deposited as PubChem BioAssay AID1671195 (Yale University, 2021)
This is one part, drawn at random, of about 22,000 deposited reagents. About 1,510 of all reagents (6.9%) count as active. 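Active includes knockdowns raising or lowering LDL uptake; positive z-scores mean more uptake, negative mean less.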 Reagents against one gene are numbered here.

Purpose: 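Regulators of LDL receptor activity judged by labelled LDL uptake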 (primary screen)
System: human Huh7 hepatoma cells
Reagent: siRNA pool against human genes, 18 nM
Duration: about 2 to 2.5 days of knockdown, then 8 h LDL uptake
Treatment: DiI-labelled LDL at 30 µg/ml for 8 h, in lipoprotein-deficient serum medium
Measurement: 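Per-cell DiI-LDL intensity by automated imaging; well means scaled to the plate median and given as a robust z-score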
Reading the numbers: robust z-score: higher = more LDL uptake after knockdown
Active means: 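Active when two or more replicates show a robust z-score above 2 or below -2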

| gene symbol | reagent | robust z-score, replicate 1 | robust z-score, replicate 2 | robust z-score, replicate 3 | activity call |
| --- | --- | --- | --- | --- | --- |
| RNF181 | 1 | 1.18 | 0.421 | 1.1 | inactive |
| FAM78B | 1 | -0.731 | -0.699 | -1.25 | inactive |
| ZFYVE19 | 1 | -0.572 | -0.655 | -0.0934 | inactive |
| FOXP3 | 1 | -0.127 | 0.107 | -0.0194 | inactive |
| RUNDC3A | 1 | -1.32 | -0.372 | -1.4 | inactive |
| C14orf180 | 1 | 0.401 | 0.699 | 0.518 | inactive |
| NCAPD3 | 1 | -0.418 | -0.233 | -0.61 | inactive |
| ASIP | 1 | -0.733 | 0.0951 | -1.13 | inactive |
| FASTKD3 | 1 | 0.826 | 1 | 1.48 | inactive |
| EXD2 | 1 | -0.363 | 0.0542 | -0.235 | inactive |
| KRT80 | 1 | -0.795 | -0.655 | -0.99 | inactive |
| CRYBA2 | 1 | -0.269 | 0.211 | -1.53 | inactive |
| LOC388893 (retired record) | 1 | -2.09 | -2.16 | -2.05 | active |
| DGKB | 1 | 0.253 | 0.201 | -0.3 | inactive |
| VLDLR-AS1 | 1 | 1.35 | -0.0176 | 0.168 | inactive |
| GPR32 | 1 | 2.35 | 1.25 | 1.89 | inactive |
| ZNF646 | 1 | -1.67 | -1.99 | -1.93 | inactive |
| ZCRB1 | 1 | -0.298 | -0.56 | -0.101 | inactive |
| DAZAP1 | 1 | -0.32 | -0.599 | -0.632 | inactive |
| LINC00905 | 1 | 0.13 | -0.146 | 0.787 | inactive |
| CMTM8 | 1 | 1.25 | 0.375 | 1.16 | inactive |
| TAF6L | 1 | -0.992 | -1.07 | -1.02 | inactive |
| DEDD2 | 1 | 0.651 | 0.14 | 0.965 | inactive |
| RHOT2 | 1 | 0.875 | 0.545 | 2.24 | inactive |
| DAP3 | 1 | -0.143 | 0.988 | 0.239 | inactive |
| SIRPD | 1 | 0.565 | 1.62 | 1.48 | inactive |
| SPTBN1 | 1 | 1.73 | 0.518 | 2.76 | inactive |
| TAS1R3 | 1 | -1.26 | -1.29 | -1.66 | inactive |
| RASGRP1 | 1 | 1.09 | 1.29 | 1.15 | inactive |
| MSR1 | 1 | 1.85 | 0.0373 | 0.0691 | inactive |
| SLFN13 | 1 | 1.74 | 1.83 | 1.42 | inactive |
| LOC440364 (retired record) | 1 | 1.63 | 2.51 | 1.64 | inactive |
| LCA5 | 1 | -0.764 | -0.993 | -1.59 | inactive |
| ENTPD6 | 1 | -0.129 | 1.14 | -0.0633 | inactive |
| USP4 | 1 | 2.26 | 1.71 | 2.93 | active |
| OR7A10 | 1 | -0.282 | -0.134 | 0.0238 | inactive |
| TOR1AIP2 | 1 | -0.359 | -0.127 | -0.58 | inactive |
| TOR1AIP2 | 2 | -0.842 | -0.158 | -0.878 | inactive |
| CREBBP | 1 | -1.82 | -1.93 | -2.13 | active |
| MLST8 | 1 | 0.437 | 0.984 | 0.594 | inactive |
| GPS1 | 1 | -2.2 | -1.6 | -2.09 | active |
| SELENOK | 1 | -0.256 | -0.253 | -0.186 | inactive |
| CLOCK | 1 | -1.4 | -0.82 | -1.16 | inactive |
| RABGEF1 | 1 | -1.83 | -1.03 | -2.19 | inactive |
| UGT1A4 | 1 | -0.651 | -0.63 | -0.0529 | inactive |
| LOC388365 (retired record) | 1 | 1.07 | 1.23 | 1.32 | inactive |
| ANAPC1P6 | 1 | -1.27 | -1.48 | -1.61 | inactive |
| VEZT | 1 | 0.0523 | 1.26 | -0.302 | inactive |
| PLA2G4A | 1 | -0.47 | -0.427 | 0.56 | inactive |
| CNKSR3 | 1 | -1.55 | -1.04 | -1.34 | inactive |
| KRTAP12-2 | 1 | 0.367 | 0.909 | 0.668 | inactive |
| LOC442015 (retired record) | 1 | 1.29 | 1.51 | 1.44 | inactive |
| ADGRL2 | 1 | -0.564 | -0.887 | -0.461 | inactive |
| NLRC5 | 1 | 0.237 | 0.0803 | 0.813 | inactive |
| TBX6 | 1 | -0.00332 | 0.173 | 0.381 | inactive |
| PFKFB2 | 1 | -0.0545 | -0.0254 | -0.397 | inactive |
| ARPC2 | 1 | 0.188 | -0.445 | -0.0226 | inactive |
| LINC00304 | 1 | 1.31 | 0.969 | 0.423 | inactive |
| ERAP1 | 1 | -2.01 | -1.06 | -0.971 | inactive |
| MYL4 | 1 | 1.15 | 1.98 | 0.391 | inactive |
| PRR22 | 1 | 0.913 | 0.843 | 0.516 | inactive |
| MRC2 | 1 | 0.264 | 0.406 | 0.126 | inactive |
| ZBTB14 | 1 | 1.4 | 0.509 | 0.731 | inactive |
| MAFK | 1 | -0.996 | -1.55 | -1.74 | inactive |
| RFC3 | 1 | -0.778 | 0.194 | -0.967 | inactive |
| HLA-DRB3 | 1 | 2.17 | -0.583 | 0.964 | inactive |
| FBXL3 | 1 | 0.504 | -0.722 | -1.65 | inactive |
| MUC17 | 1 | 0.46 | -0.316 | 0.745 | inactive |
| CDPF1 | 1 | 1.87 | 0.48 | 1.44 | inactive |
| LAGE3 | 1 | 0.866 | 0.758 | 0.571 | inactive |
| COL13A1 | 1 | 0.139 | 0.0211 | -0.434 | inactive |
| CBR1 | 1 | 1.85 | 0.786 | 1.42 | inactive |
| CCDC149 | 1 | 0.0773 | 0.184 | 0.276 | inactive |
| SDF2 | 1 | 2.54 | 1.4 | 2.69 | active |
| CDCA5 | 1 | 1.49 | 2.28 | 2.32 | active |
| CDCA5 | 2 | -0.684 | -0.682 | -0.958 | inactive |
| SND1-IT1 | 1 | -0.838 | -0.146 | 0.729 | inactive |
| TCEAL9 | 1 | 0.226 | 0.823 | 0.316 | inactive |
| SHLD2 | 1 | -0.45 | -1.28 | -0.166 | inactive |
| ADRB3 | 1 | 0.672 | -0.367 | -0.654 | inactive |
| FRYL | 1 | 0.207 | 1.78 | -0.21 | inactive |
| OR4C11 | 1 | 0.181 | -0.361 | 0.105 | inactive |
| SLITRK3 | 1 | 1.25 | -0.079 | -0.0999 | inactive |
| C14orf93 | 1 | 0.475 | 0.921 | 1.22 | inactive |
| PDLIM2 | 1 | -0.751 | -0.395 | -1.32 | inactive |
| OR5AN1 | 1 | 0.126 | -0.132 | 0.065 | inactive |
| MYBPC2 | 1 | -1.28 | -0.595 | -1.4 | inactive |

14 entries from above, arranged by “robust z-score, replicate 1”, lowest first:
| gene symbol | reagent | robust z-score, replicate 1 | robust z-score, replicate 2 | robust z-score, replicate 3 | activity call |
| --- | --- | --- | --- | --- | --- |
| MAFK | 1 | -0.996 | -1.55 | -1.74 | inactive |
| RFC3 | 1 | -0.778 | 0.194 | -0.967 | inactive |
| CCDC149 | 1 | 0.0773 | 0.184 | 0.276 | inactive |
| COL13A1 | 1 | 0.139 | 0.0211 | -0.434 | inactive |
| MRC2 | 1 | 0.264 | 0.406 | 0.126 | inactive |
| MUC17 | 1 | 0.46 | -0.316 | 0.745 | inactive |
| FBXL3 | 1 | 0.504 | -0.722 | -1.65 | inactive |
| LAGE3 | 1 | 0.866 | 0.758 | 0.571 | inactive |
| ZBTB14 | 1 | 1.4 | 0.509 | 0.731 | inactive |
| CDCA5 | 1 | 1.49 | 2.28 | 2.32 | active |
| CBR1 | 1 | 1.85 | 0.786 | 1.42 | inactive |
| CDPF1 | 1 | 1.87 | 0.48 | 1.44 | inactive |
| HLA-DRB3 | 1 | 2.17 | -0.583 | 0.964 | inactive |
| SDF2 | 1 | 2.54 | 1.4 | 2.69 | active |
